PubChem BioAssay AID504774 | Drosophila RNAi Screening Center – 2011
The deposit covers about 23,000 reagents; this is a random part of those with a known target gene and a result. 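Values are quantile-normalised luminescence on an arbitrary scale; higher means more cells surviving MMS.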 Names joined by + are all predicted targets of the reagent. Not all columns of the deposit are shown.

- Assay: 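Fly genes whose loss alters survival after alkylation damage to DNA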 (primary screen)
- System: Drosophila Kc167 cells
- Reagents: long dsRNA against Drosophila genes, about 0.25 µg dsRNA per well
- Time to read-out: about 6 days: 3 days knock-down, then 3 days with or without MMS
- Treatment: methyl methanesulphonate 0.004% (w/v) for 3 days after knock-down
- Measured: 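Viability in wells given MMS, read as ATP luminescence, normalised by quantiles plate by plate and averaged across replicates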
- Direction: mean viability with MMS and viability with MMS: higher = more surviving cells after MMS

| Gene | PubChem SID | mean viability with MMS | viability with MMS, replicate 1 |
| --- | --- | --- | --- |
| CG9302 | SID104182983 | 1.59e6 | 3.88e6 |
| CG31099 | SID104194044 | 3.30e6 | 3.73e6 |
| CG11413 + CG4622 | SID104183901 | 3.44e6 | 4.03e6 |
| gammaSnap2 | SID104195784 | 3.57e6 | 4.07e6 |
| RalGPS | SID104186733 | 3.46e6 | 3.94e6 |
| Spf30 | SID104191768 | 3.31e6 | 3.69e6 |
| MRP | SID104182734 | 3.93e6 | 4.38e6 |
| CG4619 | SID104182556 | 3.70e6 | 4.42e6 |
| Cip4 | SID104187883 | 3.45e6 | 3.86e6 |
| Cip4 | SID104188261 | 3.47e6 | 3.92e6 |
| Cip4 | SID104201410 | 3.27e6 | 3.79e6 |
| frm | SID104189545 | 3.53e6 | 3.92e6 |
| l(2)k05911 | SID104182315 | 1.98e6 | 4.17e6 |
| CG3270 | SID104184780 | 3.57e6 | 3.93e6 |
| Kr-h1 | SID104180700 | 3.43e6 | 3.85e6 |
| Kr-h1 | SID104183147 | 3.52e6 | 4.03e6 |
| MFS1 | SID104183907 | 3.69e6 | 4.06e6 |
| Sap130 | SID104189472 | 3.81e6 | 4.70e6 |
| CG10943 | SID104189597 | 3.66e6 | 4.24e6 |
| Kyat | SID104195939 | 3.47e6 | 3.96e6 |
| Naa15-16 | SID104199232 | 1.96e6 | 4.10e6 |
| Naa15-16 | SID104202205 | 3.58e6 | 4.04e6 |
| Cog6 | SID104186598 | 3.72e6 | 4.33e6 |
| CG16863 | SID104181684 | 3.49e6 | 3.95e6 |
| CG6204 | SID104195783 | 3.60e6 | 4.12e6 |
| Gasp | SID104192141 | 3.84e6 | 4.25e6 |
| pum | SID104192514 | 3.69e6 | 4.02e6 |
| pum | SID104192518 | 3.40e6 | 3.95e6 |
| pum | SID104196829 | 3.40e6 | 4.10e6 |
| pum | SID104196830 | 3.43e6 | 3.87e6 |
| pum | SID104202126 | 3.56e6 | 4.02e6 |
| pum | SID104202153 | 3.58e6 | 4.21e6 |
| CG3719 | SID104198285 | 1.83e6 | 4.07e6 |
| veil | SID104186684 | 3.64e6 | 4.03e6 |
| Uros2 | SID104196297 | 3.53e6 | 4.08e6 |
| Usp8 | SID104195668 | 3.59e6 | 4.07e6 |
| CG18301 | SID104182454 | 3.51e6 | 4.02e6 |
| CR32745 | SID104197234 | 3.44e6 | 3.73e6 |
| CG31560 | SID104191928 | 3.37e6 | 3.88e6 |
| Obp57e | SID104185683 | 3.43e6 | 3.91e6 |
| mino | SID104193924 | 3.50e6 | 3.95e6 |
| Lsm10 | SID104186042 | 3.45e6 | 3.88e6 |
| Mad | SID104180551 | 3.72e6 | 4.23e6 |
| repo | SID104196161 | 3.27e6 | 3.75e6 |
| repo | SID104202465 | 3.55e6 | 4.20e6 |
| Kaz-m1 | SID104196782 | 3.65e6 | 4.17e6 |
| Acp65Aa | SID104189455 | 3.55e6 | 3.90e6 |
| TwdlN | SID104195605 | 3.47e6 | 3.92e6 |
| CG7386 | SID104190624 | 3.56e6 | 4.07e6 |
| TTLL3A | SID104181935 | 3.50e6 | 3.94e6 |
| CG9986 | SID104196378 | 3.55e6 | 4.03e6 |
| CG17169 | SID104200697 | 3.50e6 | 3.94e6 |
| Drsl3 | SID104202040 | 3.64e6 | 4.12e6 |
| CycE | SID104183087 | 3.03e6 | 3.28e6 |
| CycE | SID104183088 | 3.12e6 | 3.61e6 |
| CG9519 | SID104199987 | 3.60e6 | 4.07e6 |
| SdhA | SID104187339 | 3.60e6 | 4.11e6 |
| Ir7d | SID104197802 | 3.46e6 | 3.72e6 |
| hfp | SID104188523 | 3.20e6 | 3.62e6 |
| hfp | SID104188524 | 3.55e6 | 4.02e6 |
| hfp | SID104201884 | 3.85e6 | 4.21e6 |
| colt | SID104180600 | 3.49e6 | 3.97e6 |
| Peritrophin-15b | SID104182058 | 3.69e6 | 4.31e6 |
| Alms1b + Alms1a | SID104198351 | 3.23e6 | 3.76e6 |
| AttB | SID104186526 | 3.59e6 | 4.34e6 |
| Vsx1 | SID104198141 | 3.67e6 | 4.17e6 |
| Vsx1 | SID104198142 | 3.16e6 | 3.59e6 |
| Vsx1 | SID104202361 | 3.66e6 | 3.98e6 |

5 successive records from above, quoted:
| Gene | PubChem SID | mean viability with MMS | viability with MMS, replicate 1 |
| --- | --- | --- | --- |
| Ir7d | SID104197802 | 3.46e6 | 3.72e6 |
| hfp | SID104188523 | 3.20e6 | 3.62e6 |
| hfp | SID104188524 | 3.55e6 | 4.02e6 |
| hfp | SID104201884 | 3.85e6 | 4.21e6 |
| colt | SID104180600 | 3.49e6 | 3.97e6 |
